{"source": "PubChem BioAssay AID504834", "about": "(National Center for Advancing Translational Sciences (NCATS), 2011)", "note": "“And” between values parts separate entries of the source, which are not always exact repeats. Identical values can stand only once. Out of some 320,000 compounds screened, about 22,000 (6.9%) were called active. This list was built around the results that the source calls inconclusive (neither active nor inactive); the mix of calls is not that of the screen. The call rests on the fitted dose curve; in most records, active means well fitted inhibition curve with a large enough effect; inconclusive means small, poorly fitted or top-dose-only effect, or another doubt; inactive means no such curve, though single readings can be large or run the other way. Potencies beside an inconclusive call are fits to weak or partial responses and may not hold up. Potency means the concentration at half of the fitted maximal effect.", "data": [{"test": "Primary qHTS for delayed death inhibitors of the malarial parasite plastid, 96 hour incubation", "settings": "P. falciparum luciferase reporter growth; series mostly up to 28.7 µM", "summary_of_the_method": "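Delayed-death screen, second-generation endpoint: infected erythrocytes, 2% hematocrit, 0.05% parasitemia final; 96 hours at 37 C, 5% CO2; luciferase detection reagent; luminescence decrease equals reduced growth.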", "values": [{"smiles": "COc1cc(-c2cc(-c3ccc(O)cc3)nc(N)c2C#N)ccc1O", "Potency": "active: 5.86 µM"}, {"smiles": "Cc1nc(N2CCCCC2C)c2c(C)c(C(=O)Nc3ccccc3C(F)(F)F)sc2n1", "note": "(stereo not drawn)", "Potency": "inactive"}, {"smiles": "COc1ccc(/C=N/NC(=O)C(=O)Nc2ccccn2)cc1OC", "Potency": "inconclusive: 16.5 µM [inhibitor, single point]"}, {"smiles": "CCc1cccc(CC)c1NC(=O)/C(C#N)=C/c1ccccc1C(F)(F)F", "Potency": "inconclusive: 18.5 µM [inhibitor, single point]"}, {"smiles": "Cc1onc(-c2c(F)cccc2Cl)c1C(=O)Nc1ccc(Cl)c(S(=O)(=O)N(C)C)c1", "Potency": "inconclusive: 18.5 µM [inhibitor, single point]"}, {"smiles": "O=C(c1cccs1)N1CCN(S(=O)(=O)c2ccc(F)cc2)CC1", "Potency": "active: 0.465 µM"}, {"smiles": "COc1ccc(-c2cc(C(F)(F)F)nc(N3CCCCCC3)n2)cc1", "Potency": "inactive"}, {"smiles": "Cc1ccc(C)c(C(C)NC(=O)c2ccc(Br)o2)c1", "note": "(stereo not drawn)", "Potency": "inconclusive: 0.0047 µM [inhibitor, partial curve, poor fit]"}, {"smiles": "COc1cccc(N2CCN(C(=O)C3CCC(=O)N(C4CCCCCC4)C3)CC2)c1", "note": "(stereo not drawn)", "Potency": "inconclusive: 18.5 µM [inhibitor, single point]"}, {"smiles": "O=C(CCS(=O)(=O)c1cc2c(cc1Cl)NC(=O)CO2)NCc1ccccc1", "Potency": "inconclusive: 18.5 µM [inhibitor, single point]"}, {"smiles": "COc1cccc(NC(=O)Nc2cccc(C)n2)c1", "Potency": "inconclusive: 10.4 µM [inhibitor, single point]"}, {"smiles": "Cc1cc2c(c(SCC#N)n1)C(=O)OC2", "Potency": "inconclusive: 6.57 µM [inhibitor, partial curve, poor fit]"}, {"smiles": "COc1cccc(CNC(=O)C2CCN(C(=O)N3CC(C)Oc4ccccc43)CC2)c1", "note": "(stereo not drawn)", "Potency": "inconclusive: 16.5 µM [inhibitor, single point]"}, {"smiles": "COC(=O)c1ccc(OCC(=O)N2CCCc3ccccc32)cc1", "Potency": "inconclusive: 14.7 µM [inhibitor, partial curve, poor fit]"}, {"smiles": "O=C(Cn1nnc(-c2ccccc2F)n1)NCCc1ccccc1", "Potency": "inconclusive: 4.15 µM [inhibitor, single point]"}, {"smiles": "C[N+](C)(C)CC[N+]1(C)Cc2c(Cl)c(Cl)c(Cl)c(Cl)c2C1", "Potency": "active: 0.239 µM"}, {"smiles": "CCN(CCCNC(=O)COc1cc(=O)n(CC)c2ccccc12)c1ccccc1", "Potency": "inconclusive: 9.28 µM [inhibitor, single point]"}, {"smiles": "CC(C)CNC(=O)COc1ncnc2sccc12", "Potency": "inactive"}, {"smiles": "O=C(Cc1cccc2ccccc12)NNC(=O)Nc1cccc(Cl)c1", "Potency": "inactive"}, {"smiles": "Cc1ccc2cc(CN(CC3CCCO3)C(=O)NC3CCCCC3)c(=O)[nH]c2c1C", "note": "(stereo not drawn)", "Potency": "inactive"}, {"smiles": "COc1cc(CNCc2ccccn2)ccc1OCC(=O)NC(C)(C)C", "Potency": "inconclusive: 11.7 µM [inhibitor, single point]"}, {"smiles": "Cc1cc(C)c(NC(=S)N(CCN2CCCCC2)Cc2ccco2)c(C)c1", "Potency": "inconclusive: 18.5 µM [inhibitor, single point]"}, {"smiles": "COc1ccc(C(=O)C2CCCN(C(=O)c3cccnc3OC)C2)c(C)c1", "note": "(stereo not drawn)", "Potency": "inactive"}, {"smiles": "O=C1N/C(=C/c2ccc(Br)s2)C(=O)N1c1ccccc1", "Potency": "inactive"}, {"smiles": "CC(C)C[C@H](NC(=O)OC(C)(C)C)c1nnc(SCC(=O)Nc2ccc(Br)cc2)o1", "Potency": "inconclusive: 18.5 µM [inhibitor, single point]"}, {"smiles": "Cc1ccc(-c2noc(N=O)c2NO)cc1", "Potency": "inconclusive: 4.65 µM [inhibitor, partial curve]"}, {"smiles": "CN1CCN(c2c(F)cc3c(=O)c(C(=O)O)cn(CCF)c3c2F)CC1", "Potency": "inactive"}, {"smiles": "Cc1nnc(N2C(=O)c3ccc(Br)cc3C2=O)s1", "Potency": "inconclusive: 11.7 µM [inhibitor, single point]"}, {"smiles": "Cc1c(C(=O)N2CCOCC2)c(S(=O)(=O)Nc2cccc(C#N)c2)c(C)n1C", "Potency": "inactive"}, {"smiles": "CCOC(=O)C1(Cc2ccccc2C)CCCN(S(=O)(=O)CC)C1", "note": "(stereo not drawn)", "Potency": "inconclusive: 18.5 µM [inhibitor, single point]"}, {"smiles": "Cc1ccc(NC(=O)CN(C)C(=O)COc2c(Cl)cc(Cl)c3ccc(C)nc23)cc1", "Potency": "active: 1.65 µM"}, {"smiles": "Cc1[nH]c(=O)[nH]c(=O)c1NC(=O)c1sc2nc3c(C)cccc3cc2c1N", "Potency": "active: 4.65 µM"}, {"smiles": "c1ccc(-c2nnc(-c3ccccn3)c(-c3ccccn3)n2)nc1", "Potency": "inconclusive: 18.5 µM [inhibitor, single point]"}, {"smiles": "CC(=O)Nc1ccc(NC(=O)CSCCc2ccccn2)cc1", "Potency": "inconclusive: 2.62 µM [inhibitor, full curve]"}, {"smiles": "S=C(NCc1ccccc1)N1CCn2cccc2C1c1ccncc1", "note": "(stereo not drawn)", "Potency": "inconclusive: 18.5 µM [inhibitor, single point]"}, {"smiles": "COc1ccc(-c2nc(CS(=O)CC(=O)NCCN3CCCCCC3)c(C)o2)cc1OC", "note": "(stereo not drawn)", "Potency": "inconclusive: 18.5 µM [inhibitor, single point]"}, {"smiles": "Cc1cccc2cc(CN(Cc3cccnc3)C(=S)NCCCN(C)C)c(=O)[nH]c12", "Potency": "inconclusive: 18.5 µM [inhibitor, single point]"}, {"smiles": "O=C(CCCCCN1C(=O)c2ccccc2C1=O)NCc1ccco1", "Potency": "active: 1.04 µM"}, {"smiles": "COC(=O)[C@]1(C)CCC[C@@]2(C)C3CC[C@@]4(C)C[C@]3(CCC21)CC(=O)N4C", "note": "(stereo partly drawn)", "Potency": "inconclusive: 1.47 µM [inhibitor, single point]"}, {"smiles": "COc1ccc(N(Cc2cc3cccc(C)c3[nH]c2=O)C(=O)C2CCCO2)cc1", "note": "(stereo not drawn)", "Potency": "inconclusive: 0.329 µM [inhibitor, full curve, poor fit]"}, {"smiles": "C/C(=N\\N=C\\c1cccc(F)c1)c1nnn(-c2nonc2N)c1C", "Potency": "inconclusive: 5.86 µM [inhibitor, partial curve, poor fit]"}, {"smiles": "Cc1noc(C)c1S(=O)(=O)NCC(=O)O", "Potency": "inconclusive: 10.4 µM [inhibitor, single point]"}, {"smiles": "COc1ccc(NC(=O)CN2CCN(C3c4ccccc4-c4ccccc43)CC2)c(OC)c1", "Potency": "inactive"}, {"smiles": "CSc1ccc(CN(C)CC(=O)Nc2ccccc2Br)cc1", "Potency": "inconclusive: 18.5 µM [inhibitor, single point]"}, {"smiles": "COc1cc(Cl)cc(CN2CCC(CCC(=O)NC3CC3)CC2)c1OC", "Potency": "active: 13.1 µM"}, {"smiles": "O=C(CSc1nc2c(sc3ccccc32)c(=O)n1CCO)NCc1ccco1", "Potency": "inactive"}, {"smiles": "c1ccc(C2COC(c3cccs3)=N2)cc1", "note": "(stereo not drawn)", "Potency": "inactive"}, {"smiles": "COC(=O)c1sccc1NC(=S)Nc1cc(C)cc(C)c1", "Potency": "active: 10.4 µM"}, {"smiles": "CS/C(=C\\[N+](=O)[O-])Nc1ccc(Cl)cc1", "Potency": "inconclusive: 0.104 µM [inhibitor, full curve, poor fit]"}, {"smiles": "COc1cccc(NC(=O)c2ccccc2-c2nc(-c3ccc(Cl)cc3)no2)c1", "Potency": "inconclusive: 6.57 µM [inhibitor, partial curve]"}, {"smiles": "Cc1ccc(C)c(S(=O)(=O)Nc2ccc(C(=O)NCCCN3CCOCC3)cc2)c1", "Potency": "inconclusive: 16.5 µM [inhibitor, single point]"}, {"smiles": "CCCn1c(-c2ccc(OC)cc2)nc2ccccc21", "Potency": "inconclusive: 0.738 µM [inhibitor, partial curve, poor fit]"}, {"smiles": "CC(C)(O)C(=O)N=Nc1c(O)[nH]c2ccccc12", "Potency": "inactive"}, {"smiles": "COc1cc(C)c(CN2CC=C(c3ccc(F)cc3)CC2)cc1C", "Potency": "active: 11.7 µM"}, {"smiles": "CC(=O)c1c(C)n(-c2cccc(Cl)c2)c2ccc(O)cc12", "Potency": "active: 2.62 µM"}, {"smiles": "COCCNC(=O)C(c1ccc(F)cc1)N(C(=O)CCC(=O)Nc1ccccn1)c1ccc(C)cc1", "note": "(stereo not drawn)", "Potency": "active: 1.31 µM"}, {"smiles": "Cn1c(SCC(=O)N2CCN(c3ccccc3)CC2)nnc1-c1ccncc1", "Potency": "active: 11.7 µM"}, {"smiles": "COc1cc2c(cc1NC(=O)CSc1nc3ccc(C)cc3[nH]1)oc1ccccc12", "Potency": "inactive"}, {"smiles": "CS(=O)(=O)N1CCCC(C(=O)Nc2ccc(F)c(F)c2)C1", "note": "(stereo not drawn)", "Potency": "inactive"}, {"smiles": "Cc1nnc(C)n1/N=C/c1cccs1", "Potency": "inactive"}, {"smiles": "COc1ccc(-c2cc(C(=O)N(C)Cc3cccc(OC)c3OC)c3ccccc3n2)cc1OC", "Potency": "inconclusive: 9.28 µM [inhibitor, partial curve]"}, {"smiles": "Cc1ccc(C(=O)Nc2cccc(C(F)(F)F)c2)cc1NC(=O)c1csc(-c2ccncc2)n1", "Potency": "inconclusive: 18.5 µM [inhibitor, single point]"}, {"smiles": "CC1(C(=O)N(Cc2ccccc2)Cc2ccccc2)CC1(Br)Br", "note": "(stereo not drawn)", "Potency": "inconclusive: 0.37 µM [inhibitor, full curve, poor fit]"}, {"smiles": "O=C(CNC(=O)C12CC3CC(CC(C3)C1)C2)OCC(=O)N1CCCCC1", "Potency": "inactive"}, {"smiles": "O=C(N/N=C\\C=C\\c1ccco1)c1cc(-c2ccc3ccccc3c2)n[nH]1", "Potency": "inactive"}, {"smiles": "Cc1ccc([N+](=O)[O-])cc1NC(=O)C(C)NS(=O)(=O)c1ccc(F)cc1", "note": "(stereo not drawn)", "Potency": "inactive"}, {"smiles": "Cc1ccc(-n2nc(C)c(=O)c(-c3ccccc3)c2NC(=O)C(C)C)cc1", "Potency": "inactive"}, {"smiles": "O=C(Nc1ccccc1N1CCOCC1)C1CCN(S(=O)(=O)c2cccc(C(F)(F)F)c2)CC1", "Potency": "inconclusive: 18.5 µM [inhibitor, single point]"}, {"smiles": "Cc1ncsc1CCOC(=O)c1cccc([N+](=O)[O-])c1", "Potency": "inconclusive: 11.7 µM [inhibitor, partial curve]"}, {"smiles": "O=C(/C=C\\c1ccco1)Nc1ccc(N2CCN(C(=O)c3ccccc3)CC2)cc1", "Potency": "active: 5.86 µM"}, {"smiles": "Cc1cccc(CCNS(=O)(=O)c2cc3c(cc2C)NC(=O)CO3)c1", "Potency": "active: 9.28 µM"}, {"smiles": "S=c1[nH]c2cc3ccccc3cc2[nH]1", "Potency": "inactive and inconclusive: 3.29 µM [inhibitor, partial curve, poor fit]"}, {"smiles": "Cc1c(N=Cc2c(O)n(Cc3ccco3)c(=O)[nH]c2=O)c(=O)n(-c2ccccc2)n1C", "Potency": "inconclusive: 2.94 µM [inhibitor, single point]"}]}]}
